Laboratory results from patent US9145382B2, “Organic compound and electrochromic device using the same” (CANON KABUSHIKI KAISHA, priority 2014, dated 2015).

Assay: Electrochromic device evaluation (transmittance before and after applying voltage)
Conditions: 2 volt applied; 75.0 mM each of A-1 and C-1 in propylene carbonate

Structure (SMILES)	main optical absorption of the colored species in the EC device
COC(=O)c1ccc(C[n+]2ccc(-c3cc[n+](Cc4ccc(C(=O)OC)cc4)cc3)cc2)cc1 [C-1, reference compound]	around 605 nm
COCCOCc1c(-c2c(OC)cccc2OC(C)C)sc(-c2c(OC)cccc2OC(C)C)c1COCCOC [A-1]	around 415 nm
